B1: HSFN 68-13 Fab (Fab, V domains shown)
VH: QQQLVESGGGVVRPGGSLRLSCAASGFTFSTYYMSWVRQAPGKGLEWIGYIGTSSGTTYYANSVKGRFTISSDNAKNSVYLQMNSLRPEDTAVYYCARGLGRINLWGPGTLVTVSS
VL: ELQMTQSPSSLSASVGDRVTITCRASQSISTWLAWYQQKPGKAPKLLIYKASTLESGVPLRFSGGGSGTDFTLTISSLQSEDFATYFCQQSYSLPPTFGQGTKVEVKR
notes: also called anti-HGF/SF Fab humanized antibody
B2: HSFN 68-16 Fab (Fab, V domains shown)
VH: B1 VH with V11L, R13Q, V37I, K76Q, P108Q
VL: ELVMTQSPSTLSASVGDRVTITCRASQSISSWLAWYQQKPGKAPKLLIYKASTLESGVSSRFSGGGSGTEFTLTISSLQPDDFATYYCQQYSRYSGGTFGQGTKVEIRR
notes: Fab with human Ckappa and human CH1, expressed from pComb3X in E. coli HB2151
B3: HSFN 68-27 Fab (Fab, V domains shown)
VH: B1 VH with Q2V, V11L, R13K, L18R, K76Q, P108Q
VL: ELQMTQSPSTLSASVGDRVTITCRASQSISSRLAWYQQKPGKAPKLLIYRASTLEGGVPSRFSGSGSGTEFTLTISGLQPDDFATYYCQQYSTFSPTFGQGTQVDIKR
notes: as for B2
B4: HSFN 68-41 Fab (Fab, V domains shown)
VH: B1 VH with V11L, R13Q, I48V, P108Q
VL: B2 VL with V3Q, T10S, L11V, T22S, S28D, S30R, W32L, S59P, G65S, S77N
notes: as for B2

By UniProt entry, the sequences of proteins in these tests, tags left out. Residues count along the entry.
UniProt P14210, residues 32-728: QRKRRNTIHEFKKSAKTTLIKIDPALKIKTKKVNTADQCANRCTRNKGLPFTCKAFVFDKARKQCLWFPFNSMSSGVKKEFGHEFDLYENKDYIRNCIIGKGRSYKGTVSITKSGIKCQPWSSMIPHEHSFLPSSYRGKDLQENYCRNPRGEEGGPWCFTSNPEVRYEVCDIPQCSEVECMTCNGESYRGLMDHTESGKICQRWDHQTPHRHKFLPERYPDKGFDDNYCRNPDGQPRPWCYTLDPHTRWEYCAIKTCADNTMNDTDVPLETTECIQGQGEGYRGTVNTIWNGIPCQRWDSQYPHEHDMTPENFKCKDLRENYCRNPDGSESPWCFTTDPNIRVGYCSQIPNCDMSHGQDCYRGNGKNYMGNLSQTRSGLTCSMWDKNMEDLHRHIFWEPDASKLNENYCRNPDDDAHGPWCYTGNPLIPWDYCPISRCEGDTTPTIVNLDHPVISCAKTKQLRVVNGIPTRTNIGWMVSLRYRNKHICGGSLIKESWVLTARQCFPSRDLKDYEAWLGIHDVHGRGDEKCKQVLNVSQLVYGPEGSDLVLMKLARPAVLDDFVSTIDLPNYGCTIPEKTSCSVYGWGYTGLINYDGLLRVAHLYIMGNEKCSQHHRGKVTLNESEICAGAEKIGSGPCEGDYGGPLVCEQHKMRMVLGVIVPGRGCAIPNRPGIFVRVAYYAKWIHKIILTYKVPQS

Numbering of substitutions follows the chain as printed. Results are given in words; binding and its absence hold for the method and conditions named. Some binding calls cover weakened binding; strength is not graded here.

The first experiment deals with HGF/SF (hepatocyte growth factor/scatter factor) (UniProt P14210). Description: competition ELISA: HGF/SF coated on the plate, cMET/Fc chimera as the blocked ligand mixed with the varied Fab, bound cMET/Fc detected with HRP anti-human Fc, Abs. at 450 nm, triplicates.
As to B1, the binding entry is “binds”.

The target is the same in the next experiment. The experiment in a line: affinity examination of the HSFN 68 clones on HGF/SF; method not named in this paragraph.
Consider B2, for which the binding result is on record as “binds”.

Take B3: the binding entry was “binds”.

Consider B4, for which the binding entry is reported as “binds”.

The target is the same in a further experiment. Description: phage ELISA, HGF/SF coated, anti-M13 HRP detection. In general terms: ELISA stands for enzyme-linked immunosorbent assay.
Turning to B1, the binding entry is “binds”.

On to B2, for which the binding entry was “binds”.

B3: the binding entry was “binds”.

For B4, the binding entry is reported as “binds”.

The next experiment shares this target. The experiment in a line: SPR (BIAcore), HGF/SF immobilized. In general terms: SPR reads the build-up and loss of mass on a sensor chip optically.
As to B1, the binding result is listed as “binds”.

For B2, the binding result is reported as “binds”.

On to B3, for which the binding entry is “binds”.

In the case of B4, the binding entry is “binds”.
